# From PubChem BioAssay AID817 (Emory University Molecular Libraries Screening Center, 2007)
# This is one part of the list.
# Test: restorers of sdo1-deficient yeast growth – S. cerevisiae, bone marrow failure model, primary screen (AID 817);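 note: z-score against mean and SD of all compound wells on the same plate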
# Conditions: S. cerevisiae sdo1-depleted JHY4D growth rescue, OD600; measured here: growth rescue at 24 h; at 10 µM; stronger effect = higher value; pdr5 snq2 efflux-pump mutant strain
row,SMILES,z-score
1,Fc1ccccc1NC1CCN(Cc2ccccc2)CC1,-0.75
2,CCN1CCC(Nc2cccc(F)c2)CC1,0.05
3,CCOc1ncccc1C(=O)NCC1(N2CCOCC2)CCCCC1,0.75
4,CCC(CO)(C(=O)OC1CN2CCC1CC2)c1ccccc1 (stereo not drawn),0.07
5,N/C(=N\O)c1c(N)no[n+]1[O-],1.42
6,O=C(OC1CN2CCC1CC2)C1c2ccccc2C=Cc2ccccc21 (stereo not drawn),-0.48
7,c1ccc(CN2CCC(Nc3ccccc3)CC2)cc1,-0.76
8,N#CC1(Nc2ccccc2)CCN(CCc2ccccc2)CC1,0.89
9,CN1CCN(CCOC(=O)C(O)(c2ccccc2)c2ccccc2)CC1,-0.92
10,O=C(NCC1(N2CCOCC2)CCCCC1)c1cc(=O)[nH]c2ccccc12,0.41
11,O=C(NCC1(N2CCOCC2)CCCCC1)c1cc2ccccc2o1,-0.38
12,O=C(OC1CN2CCC1CC2)C1c2ccccc2Oc2ccccc21 (stereo not drawn),-0.15
13,COc1ccc(NC2CCN(CCc3ccccc3)CC2)c(OC)c1,-0.14
